From patent publication US20120309934A1, “INTRACELLUAR TARGETING BIPODAL PEPTIDE BINDER” (priority 2009, published 2012)
Results are given in words; binding and its absence hold for the method and conditions named. One block for each binder: values may come before it.

Tests used:
Assay in all cases: phage ELISA, absorbance at 450 nm
TNFa = target: TNFa
CD7 = target: CD7
Avidin = target: Avidin
myoglobulin = target: myoglobulin
Visfatin = target: Visfatin
lysozyme = target: lysozyme
CD7-Trx = target: CD7-Trx

binding (TNFa): no binding
B1: STAT3-specific bipodal-peptide binder Peptide 2 (peptide)
peptide: HGFQWPGSWTWENGKWTWKGAYQFLK

binding (CD7): no binding
binding (TNFa): no binding
B2: Peptide 1 specific to MyD88, bipodal-peptide binder (peptide)
peptide: HSHAFYGSWTWENGKWTWKGNPGWWT

binding (Avidin): no binding
binding (myoglobulin): no binding
B3: Peptide 1 specific to nAchR, bipodal-peptide binder (peptide)
peptide: EASFWLGSWTWENGKWTWKGKGTLNR

binding (TNFa): no binding
binding (Visfatin): no binding
binding (lysozyme): no binding
binding (myoglobulin): no binding
B4: Peptide 2 specific to fibronectin ED-B, bipodal-peptide binder with tryptophan zipper (peptide)
peptide: HCSSAVGSWTWENGKWTWKGIIRLEQ

binding (Avidin): no binding
binding (TNFa): no binding
B5: Peptide 1 specific to VEGF, bipodal-peptide binder (peptide)
peptide: HANFFQGSWTWENGKWTWKGWKYNQS

binding (CD7-Trx): no binding
binding (TNFa): no binding
binding (Visfatin): no binding
B6: Peptide 1 specific to HSA, bipodal-peptide binder (peptide)
peptide: AASPYKGSWTWENGKWTWKGGWRMKM
